# Results taken from PubChem BioAssay AID504834 (National Center for Advancing Translational Sciences (NCATS), 2011).
# Hit rate of the full screen: of about 320,000 compounds, about 22,000 (6.9%) were called active. Inconclusive means that the source gave no clear call. Such entries were picked first, then a sample of the others. The call rests on the fitted dose curve; in most records, active means well fitted inhibition curve with a large enough effect; inconclusive means small, poorly fitted or top-dose-only effect, or another doubt; inactive means no such curve, though single readings can be large or run the other way. Potencies of inconclusive entries are doubtful fits and often do not repeat.
# Assay: Primary qHTS for delayed death inhibitors of the malarial parasite plastid, 96 hour incubation
# Conditions: P. falciparum luciferase reporter growth; series mostly up to 28.7 µM; activity change, negative = inhibition: at the top concentration
# Outline: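 Compounds incubated with erythrocytes infected by luciferase-expressing P. falciparum (2% hematocrit, 0.05% parasitemia final) for 96 hours, 37 C in 5% CO2. Growth inhibition scored as decreased luciferase luminescence.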
# On the % scale 0 is the no-effect control and ±100 the full control effect; potency means the concentration at half of the fitted maximal effect.
SMILES,Potency,"activity change, negative = inhibition"
O=[N+]([O-])c1ccc(N/N=C/c2cn(-c3ccccc3)nc2-c2ccccc2)cc1,active: 4.65 µM,–
O=C(CN1CCN(S(=O)(=O)c2ccc(Br)cc2)CC1)c1ccc(O)c(O)c1,"inconclusive: 13.1 µM [inhibitor, single point]",–
CC(NC(=O)COC(=O)C1=NN(c2ccccc2)C(=O)CC1)c1ccccc1 (stereo unspecified),"inconclusive: 18.5 µM [inhibitor, single point]",–
COC(=O)[C@@]12CCCN1[C@H](c1ccc(-c3cccc(Cl)c3)c(OC)c1)[C@H]1C(=O)N(C)C(=O)[C@H]12,active: 0.329 µM,–
O=C(N/N=C/c1cccc2ccccc12)c1ccc(CN2CCOCC2)cc1,"inconclusive: 18.5 µM [inhibitor, single point]",–
CCN1CCN(c2ccc(S(=O)(=O)N3CCCCC3)cc2NC(=O)Cc2ccccc2)CC1,"inconclusive: 11.7 µM [inhibitor, partial curve, poor fit]",–
Cc1ccc(N(CC(=O)Nc2ccc3c(c2)OCCO3)S(=O)(=O)c2c(C)n[nH]c2C)cc1,"inconclusive: 2.62 µM [inhibitor, full curve]",–
COc1ccc(-n2c(N)c(C(=O)NCc3ccco3)sc2=S)cc1,"inconclusive: 10.4 µM [inhibitor, partial curve]",–
Cc1ccc(S(=O)(=O)N2CCc3ccccc3C2)cc1,"inconclusive: 16.5 µM [inhibitor, partial curve, poor fit]",–
COc1ccccc1CN1CC(C(=O)NCc2c(F)ccc(C)c2F)CCC1=O (stereo unspecified),"inconclusive: 9.28 µM [inhibitor, single point]",–
O=[N+]([O-])c1ccc(N/N=C/c2cccc(O)c2O)c(S(=O)(=O)N2CCOCC2)c1,"inconclusive: 2.94 µM [inhibitor, full curve]",–
COc1cc(/C=N/N2CCN(c3ccccc3)CC2)ccc1OC(C)=O,–,inactive: 2.01%
CCc1c(C)c2ccc(OC3CCCCC3=O)cc2oc1=O (stereo unspecified),–,inactive: 101%
O=C(O)COc1ccccc1/C=N/NC(=O)CSc1nc2ccccc2c(=O)n1-c1ccccc1,–,inactive: 7.02%
N#CC1(Nc2ccccc2)C(=O)Nc2ccccc21 (stereo unspecified),"inconclusive: 0.0041 µM [inhibitor, full curve, poor fit]",–
CC(C)c1ccc(-c2c(NCCc3ccccc3)c(=O)c2=O)cc1,"inconclusive: 1.04 µM [inhibitor, full curve, poor fit]",–
COc1ccccc1N1CCN(CC(=O)Nc2ccc(S(=O)(=O)N3CCCCCC3)cc2)CC1,"inconclusive: 9.28 µM [inhibitor, partial curve, poor fit]",–
Nc1ccc(S(=O)(=O)NC(Cc2ccccc2)C(=O)O)cc1 (stereo unspecified),–,inactive: -2.73%
CCN(C(=O)CSc1nnc(-c2ccc(Cl)cc2)n1C)C1CCS(=O)(=O)C1 (stereo unspecified),–,inactive: -1.85%
COc1ccc(C(=O)/C=C(/C)N(C)C)cc1,"inconclusive: 0.147 µM [inhibitor, full curve, poor fit]",–
O=C(N/N=C/c1cccc2nccnc12)c1ccccc1O,"inconclusive: 14.7 µM [inhibitor, partial curve, poor fit]",–
CCCCc1ccc(NC(=S)NCc2cccnc2)cc1,–,inactive: 11.7%

SMILES,Potency,"activity change, negative = inhibition"
CC(NC(=O)C(=O)N1CCCCC1)C(c1cccs1)N1CCN(C)CC1 (stereo unspecified),"inconclusive: 18.5 µM [inhibitor, single point]",–
COc1cc(C(=O)NCCN2CCN(C(=O)c3cc(OC)c(OC)c(OC)c3)CC2)cc(OC)c1OC,–,inactive: -9.74%
O=C(c1ccc(C#Cc2ccccc2)o1)N1CCN(c2ccccn2)CC1,active: 8.28 µM,–
Cc1cc2ccccc2n1CCNC(=O)Cc1cccc2ccccc12,"inconclusive: 13.1 µM [inhibitor, single point]",–
COc1ccc2cc1Oc1ccc(cc1)C[C@H]1c3cc(c(OC)cc3CCN1C)Oc1c(OC)c(OC)cc3c1[C@@H](C2)N(C)CC3,active: 1.47 µM,–
CCOc1ccc(NC(=O)CC(NC(C)=O)c2ccccc2)cc1S(=O)(=O)N1CCCC1 (stereo unspecified),"inconclusive: 3.29 µM [inhibitor, partial curve, poor fit]",–
CCN1C(=O)/C(=C\N2CCN(C)CC2)SC1=S,"inconclusive: 3.7 µM [inhibitor, partial curve, poor fit]",–
O=C(Nc1cccnc1Cl)c1cc2ccccc2o1,–,inactive: 314%
CC1(C)Cc2nc3sc4c(NCCO)ncnc4c3cc2CS1,"inconclusive: 10.4 µM [inhibitor, single point]",–
Cn1c(=O)c2c(nc(SC3C(=O)CC(C)(C)CC3=O)n2C)n(C)c1=O,active: 11.7 µM,–
c1ccc2oc(SCc3cn4ccsc4n3)nc2c1,"inconclusive: 16.5 µM [inhibitor, single point]",–
CCOc1ccc(NC(=O)c2cc(Cl)nc3ccccc23)cc1,–,inactive: 53%
CC(/C=N/NC(=O)CSc1nc2ccccc2n1C)=C\c1ccco1,–,inactive: -17.5%
CCn1cc(C(=O)NCCc2ccc(Cl)cc2)c(=O)c2cc(S(=O)(=O)N(C)C)ccc21,"inconclusive: 14.7 µM [inhibitor, partial curve, poor fit]",–
CCOC(=O)CNC(=O)CSc1nc2c(C)cccc2cc1CC,"inconclusive: 5.22 µM [inhibitor, partial curve]",–
CCOC(=O)c1nnn(-c2nonc2N)c1-c1ccc(Cl)cc1,"inconclusive: 18.5 µM [inhibitor, partial curve, poor fit]",–
CCOC(=O)N1CCN(CCC(=O)Nc2cc(OC)ccc2OC)CC1,"inconclusive: 18.5 µM [inhibitor, single point]",–
Cc1nnnn1CC(=O)Nc1cccc([N+](=O)[O-])c1,"inconclusive: 11.7 µM [inhibitor, partial curve]",–
C/C(=N\NC(=O)c1cccnc1)c1cccc([N+](=O)[O-])c1,"inconclusive: 5.22 µM [inhibitor, partial curve, poor fit]",–
Cn1c(-c2ccccc2)c[n+]2c1-c1ccccc1C2,"inconclusive: 0.329 µM [inhibitor, full curve, poor fit]",–
Cc1ccc(NC(=O)CN2CCN(S(=O)(=O)c3ccc(F)cc3)CC2)cc1C,"inconclusive: 9.28 µM [inhibitor, partial curve]",–
CCN1C(=O)[C@@H]2[C@@H](c3ccc(SC4CCCCC4)cc3)N3CCCC[C@@]3(C(=O)OC)[C@@H]2C1=O,active: 11.7 µM,–

SMILES,Potency,"activity change, negative = inhibition"
Cc1ccc(C)c(N2CCN(C(=S)NC3CCCCC3)CC2)c1,"inconclusive: 3.7 µM [inhibitor, full curve]",–
CCOc1ccc(Oc2ccccc2NC(=O)C2=COCCO2)cc1,"inconclusive: 18.5 µM [inhibitor, single point]",–
Cc1ccc(S(=O)(=O)CCC(=O)NCCN2C(=O)S/C(=C\c3ccccc3)C2=O)cc1,"inconclusive: 18.5 µM [inhibitor, single point]",–
COc1ccccc1N(CC(=O)NC1CCCC1)S(=O)(=O)c1cccc(C(F)(F)F)c1,"inconclusive: 10.4 µM [inhibitor, single point]",–
O=[N+]([O-])c1ccc(S(=O)(=O)N/N=C/c2ccco2)cc1,–,inactive: -5.26%
COc1ccc(NC(=O)CN(C)C(=O)c2ccc(N3CCCC3)c([N+](=O)[O-])c2)cc1,"inconclusive: 13.1 µM [inhibitor, partial curve, poor fit]",–
Cc1ccc(NC(=O)CN2CC(C)SC2=NC2CCCCC2)cc1 (stereo unspecified),"inconclusive: 18.5 µM [inhibitor, single point]",–
O=Cc1cn(CCCOc2ccccc2)c2ccccc12,–,inactive: 7.39%
CCCCNC(=O)C1CCN(S(=O)(=O)c2ccc3c(c2)CC(C)N3C(=O)C2CC2)CC1 (stereo unspecified),"inconclusive: 2.08 µM [inhibitor, partial curve, poor fit]",–
Cc1nc2sc(C(c3ccco3)N3CCN(C(c4ccccc4)c4ccccc4)CC3)c(O)n2n1 (stereo unspecified),"inconclusive: 2.62 µM [inhibitor, full curve, poor fit]",–
CCOC(=O)N1CCN(CC(=O)Nc2cc(OC)c(OC)cc2C#N)CC1,"inconclusive: 0.0415 µM [inhibitor, full curve, poor fit]",–
CC(NC(=O)C12CC3(C)CC(C)(CC(C)(C3)C1)C2)C(=O)O (stereo unspecified),"inconclusive: 2.08 µM [inhibitor, full curve]",–
COc1cccc(NC(=O)CCC2CCN(C(=O)c3ccc(C(C)=O)s3)CC2)c1,"inconclusive: 11.7 µM [inhibitor, single point]",–
CCCCCCNCc1c(F)cccc1Cl,–,inactive: 30.2%
N#C/C(=C\Nc1ccccc1SC(F)(F)F)c1nc(-c2ccc(F)cc2)cs1,"inconclusive: 5.22 µM [inhibitor, partial curve, poor fit]",–
CCC(C)NC(=O)CN(c1cc(C)ccc1OC)S(C)(=O)=O (stereo unspecified),"inconclusive: 18.5 µM [inhibitor, single point]",–
CCOc1ccc(C(CC(=O)O)NS(=O)(=O)c2ccc(C)cc2)cc1OC (stereo unspecified),"inconclusive: 1.85 µM [inhibitor, full curve, poor fit]",–
O=C(c1ccc(Cl)cc1)C1CCN(C(=O)c2ccc(F)cc2)CC1,active: 13.1 µM,–
Cc1nn(-c2ccc(N3CCOCC3)nn2)c(C)c1CCC(=O)Nc1ccc(F)cc1,"inconclusive: 18.5 µM [inhibitor, partial curve, poor fit]",–
CCOC(=O)NC(=S)Nc1cccc(NC(=S)NC(=O)OCC)c1,"inconclusive: 18.5 µM [inhibitor, single point]",–
O=S(=O)(c1ccc(Br)cc1)n1ccc2ccccc21,active: 2.62 µM,–
Nc1nc2ccccc2n1/N=C/c1ccc([N+](=O)[O-])s1,active: 1.47 µM,–

# Reprinted at random: 3 records from the list
SMILES,Potency,"activity change, negative = inhibition"
N#C/C(=C\Nc1ccccc1SC(F)(F)F)c1nc(-c2ccc(F)cc2)cs1,"inconclusive: 5.22 µM [inhibitor, partial curve, poor fit]",–
COc1cc(/C=N/N2CCN(c3ccccc3)CC2)ccc1OC(C)=O,–,inactive: 2.01%
CCN(C(=O)CSc1nnc(-c2ccc(Cl)cc2)n1C)C1CCS(=O)(=O)C1 (stereo unspecified),–,inactive: -1.85%
